Data as given in patent US20140341971A1 (LIPOTEK, published 2014).

Experiments:
[1] = target: pigtailed macaque DC-SIGN (pigtailed macaque (Macaca nemestrina)); assay: in vitro, Lipovaxin-MM on monocyte-derived macaque DCs and on THP-1 cells expressing exogenous macaque DC-SIGN
[2] = target: marmoset DC-SIGN (common marmoset (Callithrix jacchus)); assay: binding studies on cells modified to express marmoset DC-SIGN
[3] = target: pigtailed macaque DC-SIGN (pigtailed macaque (Macaca nemestrina)); assay: in vitro cell binding
[4] = target: pigtailed macaque DC-SIGN (pigtailed macaque (Macaca nemestrina)); assay: restates the in vitro cell binding result
[5] = target: pigtailed macaque DC-SIGN (pigtailed macaque (Macaca nemestrina)); assay: in vitro binding studies of Lipovaxin-MM to macaque DC-SIGN

binding [1]: binds | binding [2]: binds | binding [3]: binds | binding [4]: binds | binding [5]: binds
B1: DMS5000 (other)
VH: STEVQLLESGGGLVQPGGSLRLSCAASGFTFDRRAMGWVRQAPGKGLEWVSSIESDGTRTYYADSVKGRFTISRDNSKNTLYLQMNSLRAEDTAVYYCAKHPGSSYVFDYWGQGTLVTVSS
notes: Human VH domain antibody (dAb), made as a secreted protein in E. coli; also called DC-SIGN specific domain antibody (dAb); dAb

Results are given in words; binding and its absence hold for the method and conditions named. Binding calls can cover weak binding; strength is not graded here.
